Test results from patent US7226940B2, “Substituted heterocycles for the treatment of diabetes and other diseases” (Incyte San Diego, Inc., priority 2004, dated 2007).
Some of these results come from one statement about several compounds together.

Tested on: db/db mutant mice
Test: Oral administration in the early intervention treatment of type 2 diabetes in db/db mutant mice
Type: in vivo
Protocol: Five week-old female db/db mutant mice (C57BL/KsJ-db +/+ m; Jackson Labs) were housed in a fixed 12-12-hr artificial light-dark cycle, and maintained on a standard high fat diet (containing at least 11% crude fat) provided ad libitum (Teklad S-2335). Animals were allowed two days to acclimate in this experimental environment prior to the initiation of the study.
Prior to initiation of treatment, the animals were bled from the tail vein (100–200 μL of whole blood) and serum levels of glucose and triglycerides were measured in duplicate (Trinder kits; Sigma, St. Louis, Mo.). Based on these initial measures, animals (not yet hyperglycemic) were sorted into groups with approximately the same average serum glucose levels. […]
To monitor the effect of Compound 1 or 32, animals were bled following a three-hour fast at the end of the dark cycle on days 12 of the treatment period. Fasting serum glucose and triglyceride levels were measured in duplicate. […]

Cc1cc2c(cc1-c1cc(/C=C3\SC(=O)NC3=O)ccc1OC(F)(F)F)C(C)(C)CCC2(C)C [Compound 32, 3-(3,5,5,8,8-Pentamethyl-5,6,7,8-tetrahydro-2-naphthyl)-4-trifluoromethoxybenzylidene-2,4-thiazolidinedione]
dose that prevented the onset of diabetes (administered once a day): ≤ 0.3 mg/kg

COc1ccc(/C=C2\SC(=O)NC2=O)cc1-c1cc2c(cc1C)C(C)(C)CCC2(C)C [Compound 1, 3-(3,5,5,8,8-Pentamethyl-5,6,7,8-tetrahydro-2-naphthyl)-4-methoxybenzylidene-2,4-thiazolidinedione]
dose that prevented the onset of diabetes (administered twice a day): ≤ 0.3 mg/kg
